Values as published with doi:10.1371/journal.pone.0140310, rounded.

Drug key:
docetaxel (0.0001 µM): CC(=O)O[C@@]12CO[C@@H]1C[C@H](O)[C@@]1(C)C(=O)[C@H](O)C3=C(C)[C@@H](OC(=O)[C@H](O)[C@@H](NC(=O)OC(C)(C)C)c4ccccc4)C[C@@](O)([C@@H](OC(=O)c4ccccc4)[C@H]21)C3(C)C
lenalidomide (1 µM): Nc1cccc2c1CN(C1CCC(=O)NC1=O)C2=O (centres undefined)
fingolimod (2 µM): CCCCCCCCc1ccc(CCC(N)(CO)CO)cc1
tanespimycin (0.002 µM): C=CCNC1=C2C[C@@H](C)C[C@H](OC)[C@H](O)[C@@H](C)/C=C(\C)[C@H](OC(N)=O)[C@@H](OC)/C=C\C=C(/C)C(=O)NC(=CC1=O)C2=O
MK-2206 (0.4 µM): NC1(c2ccc(-c3nc4ccn5c(=O)[nH]nc5c4cc3-c3ccccc3)cc2)CCC1
ENMD-2076 (0.04 µM): Cc1cc(Nc2cc(N3CCN(C)CC3)nc(/C=C/c3ccccc3)n2)n[nH]1
CX-4945 (0.4 µM): O=C(O)c1ccc2c(c1)nc(Nc1cccc(Cl)c1)c1ccncc12

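Human melanoma cells were exposed to a pair of drugs for 72 h in 1,536-well plates and read by automated microscopy after fixing and staining. Each value is the count of nuclei relative to DMSO-treated wells, in %, so that 100 equals the control. Concentrations were fixed for each drug; these are the lower of two levels, a fifth of the higher. The file gives one value for each pair and line, without errors, so small differences may be noise.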
An unselected part of the screen is shown.
An entry leaves out what has no value listed here.

With MK-2206 and docetaxel the screen read LOX IMVI: 64.9; A101D: 57.3; IST-MEL1: 65.2; MEL-HO: 52.4; LB2518-MEL: 64.9; COLO 829: 68.6; COLO 800: 41.2. For docetaxel and CX-4945 the values were LOX IMVI: 39.0; A101D: 46.5; IST-MEL1: 84.0; MEL-HO: 52.3; COLO 829: 43.9; COLO 800: 25.9. For fingolimod and CX-4945 the values were LOX IMVI: 45.1; A101D: 93.5; IST-MEL1: 94.7; MEL-HO: 79.3; LB2518-MEL: 114; COLO 829: 69.1; COLO 800: 84.3. With tanespimycin and ENMD-2076 the screen read LOX IMVI: 99.3; A101D: 92.2; IST-MEL1: 100; MEL-HO: 97.4; LB2518-MEL: 104; COLO 829: 89.8; COLO 800: 84.1. With tanespimycin and docetaxel the screen read LOX IMVI: 63.9; A101D: 67.8; IST-MEL1: 68.9; MEL-HO: 57.4; LB2518-MEL: 55.9; COLO 829: 52.2; COLO 800: 56.4. With fingolimod and docetaxel the screen read LOX IMVI: 71.9; A101D: 74.6; IST-MEL1: 80.4; MEL-HO: 60.2; LB2518-MEL: 89.5; COLO 829: 71.8; COLO 800: 33.2.

For fingolimod and lenalidomide the values were LOX IMVI: 72.0; A101D: 99.3; IST-MEL1: 102; MEL-HO: 107; LB2518-MEL: 113; COLO 829: 80.0; COLO 800: 63.5. With ENMD-2076 and fingolimod the screen read LOX IMVI: 81.4; A101D: 99.0; IST-MEL1: 103; MEL-HO: 95.6; LB2518-MEL: 82.5; COLO 829: 90.5; COLO 800: 120. CX-4945 and tanespimycin gave LOX IMVI: 78.4; A101D: 97.0; IST-MEL1: 100; MEL-HO: 94.4; LB2518-MEL: 121; COLO 829: 83.1; COLO 800: 71.4. ENMD-2076 and CX-4945 gave LOX IMVI: 61.8; A101D: 99.8; IST-MEL1: 106; MEL-HO: 98.1; LB2518-MEL: 86.6; COLO 829: 82.0; COLO 800: 126. With MK-2206 and fingolimod the screen read LOX IMVI: 78.0; A101D: 74.4; IST-MEL1: 91.8; MEL-HO: 93.7; LB2518-MEL: 86.5; COLO 829: 86.2; COLO 800: 76.1. lenalidomide and tanespimycin gave LOX IMVI: 80.7; A101D: 89.5; IST-MEL1: 105; MEL-HO: 101; LB2518-MEL: 99.8; COLO 829: 106; COLO 800: 62.7.

tanespimycin and MK-2206 gave LOX IMVI: 54.2; A101D: 89.8; IST-MEL1: 93.5; MEL-HO: 88.3; LB2518-MEL: 106; COLO 829: 98.7; COLO 800: 153. Results for ENMD-2076 and docetaxel are LOX IMVI: 51.0; A101D: 58.5; IST-MEL1: 63.9; MEL-HO: 68.2; LB2518-MEL: 84.5; COLO 829: 51.5; COLO 800: 46.0. For CX-4945 and MK-2206 the values were LOX IMVI: 82.7; A101D: 103; IST-MEL1: 93.6; MEL-HO: 73.6; LB2518-MEL: 84.7; COLO 829: 89.8; COLO 800: 107. lenalidomide and MK-2206 gave LOX IMVI: 73.3; A101D: 96.9; IST-MEL1: 100; MEL-HO: 87.8; LB2518-MEL: 105; COLO 829: 107; COLO 800: 80.4. With lenalidomide and CX-4945 the screen read LOX IMVI: 74.3; A101D: 95.7; IST-MEL1: 106; MEL-HO: 99.8; LB2518-MEL: 130; COLO 829: 85.2; COLO 800: 69.0. fingolimod and tanespimycin gave LOX IMVI: 62.2; A101D: 77.0; IST-MEL1: 87.6; MEL-HO: 89.1; LB2518-MEL: 92.0; COLO 829: 76.3; COLO 800: 93.7.

Results for lenalidomide and docetaxel are LOX IMVI: 59.2; A101D: 63.0; IST-MEL1: 62.7; MEL-HO: 56.8; LB2518-MEL: 69.5; COLO 829: 52.4; COLO 800: 33.8.